Results are given in words; binding and its absence hold for the method and conditions named. In cells and extracts the contact can be indirect. Here binding means that the protein was enriched with, or labelled near, the bait; the list need not be complete.
Target: Flag-tagged full length human Tet3 (SBP-N-terminal-Flag-hTet3-IRES-GFP) (human) (UniProt O43151)
Test: affinity purification with mass spectrometry; Flag-tagged full-length human Tet3 transiently expressed in HEK293; lysate in RIPA buffer incubated 2 h at 4°C with anti-Flag M2 affinity gel, washed three times with RIPA; co-precipitated proteins found by mass spectrometry

Sequences of proteins named here, by UniProt entry; tags and fusion partners are left off. A change or cut given only in a name is not applied to a line headed by its entry.
UniProt O43151: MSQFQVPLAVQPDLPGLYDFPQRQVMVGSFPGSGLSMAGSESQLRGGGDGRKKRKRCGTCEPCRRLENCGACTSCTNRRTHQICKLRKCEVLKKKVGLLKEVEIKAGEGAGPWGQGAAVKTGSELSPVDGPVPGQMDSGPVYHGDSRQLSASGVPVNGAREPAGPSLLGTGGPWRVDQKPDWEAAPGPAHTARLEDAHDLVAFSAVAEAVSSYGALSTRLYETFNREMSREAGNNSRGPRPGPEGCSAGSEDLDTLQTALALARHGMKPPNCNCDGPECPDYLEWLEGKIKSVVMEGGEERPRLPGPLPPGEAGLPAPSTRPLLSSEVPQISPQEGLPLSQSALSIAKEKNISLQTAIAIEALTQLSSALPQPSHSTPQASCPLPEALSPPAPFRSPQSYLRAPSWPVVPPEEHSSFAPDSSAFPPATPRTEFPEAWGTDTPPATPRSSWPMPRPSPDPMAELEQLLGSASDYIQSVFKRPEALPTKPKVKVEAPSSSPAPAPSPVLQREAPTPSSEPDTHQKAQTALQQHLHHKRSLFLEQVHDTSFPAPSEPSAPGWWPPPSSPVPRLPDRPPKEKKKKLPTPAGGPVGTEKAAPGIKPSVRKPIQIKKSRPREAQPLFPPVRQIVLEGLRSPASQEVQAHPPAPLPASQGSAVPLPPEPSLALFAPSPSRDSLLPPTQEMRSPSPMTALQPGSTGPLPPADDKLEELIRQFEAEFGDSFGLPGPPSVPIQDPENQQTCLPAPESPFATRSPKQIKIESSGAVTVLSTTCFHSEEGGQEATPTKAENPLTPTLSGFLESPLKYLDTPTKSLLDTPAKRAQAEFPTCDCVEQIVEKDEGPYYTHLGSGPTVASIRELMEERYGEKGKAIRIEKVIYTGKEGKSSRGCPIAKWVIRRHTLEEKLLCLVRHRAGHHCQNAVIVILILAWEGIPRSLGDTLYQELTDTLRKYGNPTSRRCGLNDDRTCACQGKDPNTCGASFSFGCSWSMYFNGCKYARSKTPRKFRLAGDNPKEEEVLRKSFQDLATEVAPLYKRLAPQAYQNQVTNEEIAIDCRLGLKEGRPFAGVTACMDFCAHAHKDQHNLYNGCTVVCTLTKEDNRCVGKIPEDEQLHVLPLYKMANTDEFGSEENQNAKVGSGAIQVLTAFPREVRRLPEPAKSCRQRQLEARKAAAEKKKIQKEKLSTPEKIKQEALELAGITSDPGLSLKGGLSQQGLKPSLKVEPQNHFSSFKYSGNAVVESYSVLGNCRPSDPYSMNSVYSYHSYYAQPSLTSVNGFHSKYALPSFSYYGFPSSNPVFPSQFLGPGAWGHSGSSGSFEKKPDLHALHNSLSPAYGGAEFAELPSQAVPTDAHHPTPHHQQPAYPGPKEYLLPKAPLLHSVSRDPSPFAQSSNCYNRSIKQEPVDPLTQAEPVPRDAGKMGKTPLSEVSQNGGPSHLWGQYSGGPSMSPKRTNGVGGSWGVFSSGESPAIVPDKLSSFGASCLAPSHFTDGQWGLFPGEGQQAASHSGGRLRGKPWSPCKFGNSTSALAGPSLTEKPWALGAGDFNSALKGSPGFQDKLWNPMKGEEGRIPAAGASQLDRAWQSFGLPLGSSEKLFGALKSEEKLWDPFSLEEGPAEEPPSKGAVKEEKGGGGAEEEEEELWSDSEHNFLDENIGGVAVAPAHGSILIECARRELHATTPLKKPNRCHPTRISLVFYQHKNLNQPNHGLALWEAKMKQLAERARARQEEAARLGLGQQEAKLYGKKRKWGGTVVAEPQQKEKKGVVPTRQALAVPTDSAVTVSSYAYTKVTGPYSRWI

binding: binds
B1: O-GlcNAc transferase (enzyme, UniProt O15294 1-1046)
chain: MASSVGNVADSTEPTKRMLSFQGLAELAHREYQAGDFEAAERHCMQLWRQEPDNTGVLLLLSSIHFQCRRLDRSAHFSTLAIKQNPLLAEAYSNLGNVYKERGQLQEAIEHYRHALRLKPDFIDGYINLAAALVAAGDMEGAVQAYVSALQYNPDLYCVRSDLGNLLKALGRLEEAKACYLKAIETQPNFAVAWSNLGCVFNAQGEIWLAIHHFEKAVTLDPNFLDAYINLGNVLKEARIFDRAVAAYLRALSLSPNHAVVHGNLACVYYEQGLIDLAIDTYRRAIELQPHFPDAYCNLANALKEKGSVAEAEDCYNTALRLCPTHADSLNNLANIKREQGNIEEAVRLYRKALEVFPEFAAAHSNLASVLQQQGKLQEALMHYKEAIRISPTFADAYSNMGNTLKEMQDVQGALQCYTRAIQINPAFADAHSNLASIHKDSGNIPEAIASYRTALKLKPDFPDAYCNLAHCLQIVCDWTDYDERMKKLVSIVADQLEKNRLPSVHPHHSMLYPLSHGFRKAIAERHGNLCLDKINVLHKPPYEHPKDLKLSDGRLRVGYVSSDFGNHPTSHLMQSIPGMHNPDKFEVFCYALSPDDGTNFRVKVMAEANHFIDLSQIPCNGKAADRIHQDGIHILVNMNGYTKGARNELFALRPAPIQAMWLGYPGTSGALFMDYIITDQETSPAEVAEQYSEKLAYMPHTFFIGDHANMFPHLKKKAVIDFKSNGHIYDNRIVLNGIDLKAFLDSLPDVKIVKMKCPDGGDNADSSNTALNMPVIPMNTIAEAVIEMINRGQIQITINGFSISNGLATTQINNKAATGEEVPRTIIVTTRSQYGLPEDAIVYCNFNQLYKIDPSTLQMWANILKRVPNSVLWLLRFPAVGEPNIQQYAQNMGLPQNRIIFSPVAPKEEHVRRGQLADVCLDTPLCNGHTTGMDVLWAGTPMVTMPGETLASRVAASQLTCLGCLELIAKNRQEYEDIAVKLGTDLEYLKKVRGKVWKQRISSPLFNTKQYTMELERLYLQMWEHYAAGNKPDHMIKPVEVTESA
